Assay results as given in article doi:10.1101/2021.12.21.473719.
Like-named read-outs stand apart in the source and are kept apart here. Results are given in words; binding and its absence hold for the method and conditions named. Binding seen in cells or lysates may run through a third protein. Some entries that bind do so weakly or less than the wild type.

By UniProt entry, the sequences of proteins in these tests, tags left out. Where a name states a change or a piece, a line headed by the entry shows the natural chain unless it says otherwise. Chains listed by the source or under a name are the forms on record and can include a tag or linker.
VN-TREK-1 / VC-TREK-1 (human TREK-1c with a half of Venus for BiFC) (O95069-3, form named): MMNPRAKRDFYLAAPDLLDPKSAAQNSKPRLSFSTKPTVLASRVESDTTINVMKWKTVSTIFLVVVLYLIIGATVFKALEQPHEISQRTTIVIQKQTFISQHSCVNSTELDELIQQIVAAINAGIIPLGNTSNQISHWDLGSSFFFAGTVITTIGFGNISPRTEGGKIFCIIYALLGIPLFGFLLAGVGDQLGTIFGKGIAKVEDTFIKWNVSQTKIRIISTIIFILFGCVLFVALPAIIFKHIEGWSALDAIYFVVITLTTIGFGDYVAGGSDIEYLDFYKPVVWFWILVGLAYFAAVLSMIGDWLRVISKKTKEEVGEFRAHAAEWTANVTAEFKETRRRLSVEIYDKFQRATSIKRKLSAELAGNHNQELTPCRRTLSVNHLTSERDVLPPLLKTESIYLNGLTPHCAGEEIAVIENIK

How the values were obtained:
[1] = biological target: VN-TREK-1 / VC-TREK-1 (human TREK-1c with a half of Venus for BiFC) (human) (UniProt O95069); assay: split reporter
[2] = biological target: T1, POPDC1-VN / POPDC1-VC (mouse POPDC1 with a half of Venus for BiFC) (mouse) (UniProt Q9ES83); assay: split reporter
T1 sequence: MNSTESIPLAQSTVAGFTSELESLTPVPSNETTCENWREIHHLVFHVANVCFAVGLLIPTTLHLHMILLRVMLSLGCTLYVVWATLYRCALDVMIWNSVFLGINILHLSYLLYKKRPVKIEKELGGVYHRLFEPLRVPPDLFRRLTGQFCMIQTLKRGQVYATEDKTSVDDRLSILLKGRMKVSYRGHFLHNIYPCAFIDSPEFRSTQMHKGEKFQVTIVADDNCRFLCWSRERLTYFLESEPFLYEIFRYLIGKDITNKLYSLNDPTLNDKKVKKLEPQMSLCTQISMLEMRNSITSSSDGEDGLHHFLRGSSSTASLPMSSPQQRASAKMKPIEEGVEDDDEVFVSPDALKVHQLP

[3] = biological target: VN-TREK-1 / VC-TREK-1 (human TREK-1c with a half of Venus for BiFC) (human) (UniProt O95069); assay: split reporter; remark: listed apart in the source
[4] = biological target: POPDC1-Myc (Popeye domain-containing protein 1, Myc-tagged) (mouse) (UniProt Q9ES83); assay: co-IP

Substance: VN-TREK-1 / VC-TREK-1 (human TREK-1c with a half of Venus for BiFC) (from UniProt O95069-3 1-422)
- binding [1]: binds
- binding [2]: binds
- binding [3]: binds

Substance: GFP-tagged epidermal growth factor receptor (EGFR) (from UniProt P00533 25-1210)
- binding [4]: no binding
